Results reported in publication PMC8587043, “An Investigation into the Interaction between Double Hydroxide-Based Antioxidant Benzophenone Derivatives and Cyclooxygenase 2” (Molecules, 2021).

Test system: EA.hy926 cells
Assay: Protective effect against H2O2-induced oxidative damage, MTT assay
Assay type: cell-based
Details: Homo sapiens, EA.hy 926, 4 h, protection against H2O2-induced damage (400 µmol·L^−1, 4 h), n = 3, mean ± SD
Method: Hydrogen peroxide (H2O2), a small molecule and functions as oxidative stress and a second messenger which contributes to cell damage or death, could directly induce inflammation in several cell lines. H2O2-induced cell damage is a commonly used model for antioxidant activity evaluation. […] Thus, the concentration of 400 µmol·L^−1 at 4 h was chosen as the model.
Compound SC2 stock solutions were prepared in DMSO. The stock solutions were diluted with FBS free DMEM to different target concentrations (DMSO concentrations ≤ 0.5% v:v). Cells (100 μL, 2 × 10^5 cells∙mL^−1) were seeded on 96-well plates and cultured for 24 h. […] A microplate reader (SpectraMaxPlus384, Molecular Devices, United States) was used to record the absorbance at 490 nm for each well of the plates. Cell viability was measured via MTT assay. […]
Cells (100 μL, 2 × 10^5 cells·mL^−1) were seeded in 96-well plates for 24 h. Cells were treated with different groups and cell viability was measured via MTT assay. The protection rates to oxidative damage were determined and EC50 values were calculated. The protection rates to cells were calculated using the following formula: Protection rate (%) = (Apretreatment group − Amodel group)/(Acontrol group − Amodel group) × 100%.

CC(C)OC(=O)C(C)(C)Oc1ccc(C(=O)c2ccc(Cl)cc2)cc1 [Fenofibrate, fenofibrate, reference compound]
EC50: 6.92 ± 0.61 µM
